Measurements as given in PMC12040169 (PLOS Biology, 2025).
Some of the results follow.

What follows are compounds tested on T1, CTL2-GFP (C. trachomatis L2/434/Bu, GFP-expressing). Settings: bulk GFP, single well; 28.5 h, 10 µM; inhibitor.
T1 construct: L2/434/Bu, GFP-expressing
Parameters: species or system HeLa; Intracellular C. trachomatis growth in HeLa cells, bulk GFP fluorescence relative to DMSO

SMILES | % of control remaining [%]
O=C(Nc1ccc(-c2c3ccccc3c(-c3ccc(NC(=O)c4cccc5ccccc45)cc3)c3ccccc23)cc1)c1cccc2ccccc12 [CBK261164] | 118.024
Clc1ccc(-c2cc(N3CCN(c4ccccn4)CC3)ncn2)cc1 [CBK091085] | 129.788
CCOC(=O)N1CCC(NC(=O)N2CCN(C3CCN(C)CC3)CC2)CC1 [CBK156113] | 116.132
CS(=O)(=O)c1ccccc1C(=O)n1ccn(-c2ccc(Oc3ccccc3)cc2)c1=O [CBK106647] | 100
Cc1ccc(Cn2c(CN3CCOCC3)nc3c2c(=O)n(C)c(=O)n3C)cc1 [CBK269583] | 102.474
c1ccc(CSc2nc3ccccc3s2)nc1 [CBK027737] | 106.902
O=C(NCCCn1ccnn1)c1cccc(S(=O)(=O)N2CCCCC2)c1 [CBK304660] | 130.744
O=C(c1ccco1)N1CCC[C@H]1[C@H](O)c1nccs1 [CBK284286] | 102.802
O=S(=O)(NC1c2cccc3cccc(c23)C1Sc1ncccn1)c1ccc(Cl)cc1 (stereo not shown) [CBK264638] | 104.877
CN(C)c1cccc(-c2cncc(Nc3cccc(C(F)(F)F)c3)n2)c1 [CBK065786] | 152.004
CCn1cc(NC(=O)NC2CCN(c3ncccc3C#N)CC2)c(C)n1 [CBK307213] | 139.564
Cc1noc(C)c1NC(=O)N(Cc1ccc(-c2ccccc2)cc1)CC1CCNCC1 [CBK056721] | 105.355
O=C(c1n[nH]c2c1CCCC2)N1CC(=O)N(CCc2ccccc2)C(=O)C1 [CBK288110] | 149.503
O=C(c1ccco1)N1CCN(C(=S)Nc2ccc(S(=O)(=O)Nc3ncccn3)cc2)CC1 [CBK267096] | 57.0718
CCCn1ccnc1-c1cn(CCc2cc(O)nc(C)n2)nn1 [CBK306675] | 112.952
O=C(c1ccccc1)N1C[C@@H]2CCCCN(Cc3cccnc3)[C@@H]2C1 [CBK285512] | 97.3854
CN(C)CCN1CCN(c2ccc(-c3ccsc3)cn2)CC1 [CBK036915] | 189.268
c1ccc2sc(CCCCc3nc4ccccc4s3)nc2c1 [CBK261248] | 100
Oc1cc(Cl)c(-c2ccccc2)nn1 [CBK022028] | 100.812
CC1(C(=O)O)NC(c2ccccc2O)C2C(=O)N(Cc3ccccc3)C(=O)C21 (stereo not shown) [CBK218007] | 112.884
Cn1ccnc1C(O)C1CCN(C(=O)NCCc2cccc(F)c2)CC1 (stereo not shown) [CBK304657] | 145.081
Cn1c(COc2ccccc2)nnc1SCC(=O)c1ccc(-c2ccccc2)cc1 [CBK267426] | 129.181
Cc1nccn1CCC1CCN(C(=O)CC2CCCCO2)CC1 (stereo not shown) [CBK281974] | 116.779
CCCn1cc(C(CC(=O)O)C(=O)O)c2ccccc21 (stereo not shown) [CBK267345] | 155.153
COCCn1c(SC2CCN(C)C2=O)nc2ccccc21 (stereo not shown) [CBK305131] | 79.033
NC(=O)COc1ccccc1O [CBK261029] | 97.2315

Quoted from the listing:
In % of control remaining [%], O=C(c1ccccc1)N1C[C@@H]2CCCCN(Cc3cccnc3)[C@@H]2C1 [CBK285512] reads 97.3854
In % of control remaining [%], O=C(c1ccco1)N1CCC[C@H]1[C@H](O)c1nccs1 [CBK284286] reads 102.802

Remaining list, next part

SMILES | % of control remaining [%]
Cc1ccc(NC(=O)N2CCC(C(=O)O)CC2)cc1 [CBK156077] | 114.53
Cc1ccccc1NC(=O)Cn1c(=O)cnc2ccccc21 [CBK287852] | 133.643
CC(=O)N1CC2(CCN(Cc3nccn3C(C)C)CC2)CC1C(=O)O (stereo not shown) [CBK306587] | 95.0392
O=C(C1=C(O)C(=O)N(CCN2CCOCC2)C1c1cccnc1)c1ccco1 (stereo not shown) [CBK264570] | 111.359
CCC#CC(=O)Nc1ccc(N2CCNCC2)nc1 [CBK004746T] | 110.748
Cc1ccc(S(=O)(=O)N(Cc2c(F)cccc2F)C2CCNCC2)cc1 [CBK163927T] | 100
c1cncc(-c2nnc([C@H]3CCNC3)o2)c1 [CBK289396] | 111.484
O=C(NCCNc1ccc([N+](=O)[O-])cc1Cl)c1ccc(F)cc1 [CBK262344] | 100
N=C(Nc1nc(CSc2nnc(N)s2)cc(=O)[nH]1)Nc1ccc(Cl)cc1Cl [CBK268890] | 127.124
O=C(NCc1ccc(Cl)cc1)c1cnc2ccc(CN3CCSCC3)cc2c1O [CBK018010] | 105.488
CN(C)CCN(C)C(=O)c1ccc(-c2cccc(N(C)C)c2)nc1N(C)C [CBK106077] | 132.757
O=C(CSc1nnc2sc3ccccc3n12)N1N=CCC1c1ccccc1 (stereo not shown) [CBK266527] | 158.858
CCNC(=O)C1(Cc2ccccc2-c2ccncc2)CCOCC1 [CBK285216] | 129.819
COc1ccc(OC)c(C(O)c2nc3ccccc3n2C(C)C)c1 (stereo not shown) [CBK263474] | 120.255
Nc1cccc(-c2nc(-c3cccs3)cnc2N)c1 [CBK063923] | 135.698
CN(C)CCCNC(=O)c1ccc(/C=N/O)nc1 [CBK288489] | 80.8763
CCn1ncnc1CN1CCN(C2Cc3ccccc3C2)CC1 [CBK304401] | 160.544
COc1cc(CNc2nccnc2-c2ccc(C(=O)N3CCOCC3)cc2)cc(OC)c1 [CBK036866] | 151.312
C[C@H](c1ccccc1)n1c(=O)[nH]c2ncc(-c3cccc4cccnc34)nc21 [CBK064237] | 182.833
CCC(CNC(=O)c1cccc(C)n1)N1CCCC1 (stereo not shown) [CBK304803] | 92.2466
Cc1cccc(C(=O)NNC(=O)c2cccc(Cl)c2)c1 [CBK261676] | 98.735
COc1ccc(CCNC(=O)C(N)=O)cc1OC [CBK288457] | 141.191
CCCc1cc(=O)oc2cc(OCc3ccc(C(=O)O)o3)ccc12 [CBK264786] | 119.04
O=C1CCC(=O)N1CCOc1nccnc1OC1CCN(CC2CCCCC2)CC1 [CBK084357] | 86.2221
N=c1n(CCN2CCOCC2)c2ccccc2n1CC(O)c1cccs1 (stereo not shown) [CBK262895C] | 113.532
O=C(N/N=C/c1ccccc1Cl)c1ccc(C(=O)N/N=C/c2ccccc2Cl)cc1 [CBK261698] | 109.341
